From paper PMC9849303
Results are given in words; binding and its absence hold for the method and conditions named. Binding seen in cells or lysates may run through a third protein. Some entries that bind do so weakly or less than the wild type.

By UniProt entry, the sequences of proteins in these tests, tags left out. Where a name states a change or a piece, a line headed by the entry shows the natural chain unless it says otherwise. Chains listed by the source or under a name are the forms on record and can include a tag or linker. Residues count along the entry.
UniProt P21333: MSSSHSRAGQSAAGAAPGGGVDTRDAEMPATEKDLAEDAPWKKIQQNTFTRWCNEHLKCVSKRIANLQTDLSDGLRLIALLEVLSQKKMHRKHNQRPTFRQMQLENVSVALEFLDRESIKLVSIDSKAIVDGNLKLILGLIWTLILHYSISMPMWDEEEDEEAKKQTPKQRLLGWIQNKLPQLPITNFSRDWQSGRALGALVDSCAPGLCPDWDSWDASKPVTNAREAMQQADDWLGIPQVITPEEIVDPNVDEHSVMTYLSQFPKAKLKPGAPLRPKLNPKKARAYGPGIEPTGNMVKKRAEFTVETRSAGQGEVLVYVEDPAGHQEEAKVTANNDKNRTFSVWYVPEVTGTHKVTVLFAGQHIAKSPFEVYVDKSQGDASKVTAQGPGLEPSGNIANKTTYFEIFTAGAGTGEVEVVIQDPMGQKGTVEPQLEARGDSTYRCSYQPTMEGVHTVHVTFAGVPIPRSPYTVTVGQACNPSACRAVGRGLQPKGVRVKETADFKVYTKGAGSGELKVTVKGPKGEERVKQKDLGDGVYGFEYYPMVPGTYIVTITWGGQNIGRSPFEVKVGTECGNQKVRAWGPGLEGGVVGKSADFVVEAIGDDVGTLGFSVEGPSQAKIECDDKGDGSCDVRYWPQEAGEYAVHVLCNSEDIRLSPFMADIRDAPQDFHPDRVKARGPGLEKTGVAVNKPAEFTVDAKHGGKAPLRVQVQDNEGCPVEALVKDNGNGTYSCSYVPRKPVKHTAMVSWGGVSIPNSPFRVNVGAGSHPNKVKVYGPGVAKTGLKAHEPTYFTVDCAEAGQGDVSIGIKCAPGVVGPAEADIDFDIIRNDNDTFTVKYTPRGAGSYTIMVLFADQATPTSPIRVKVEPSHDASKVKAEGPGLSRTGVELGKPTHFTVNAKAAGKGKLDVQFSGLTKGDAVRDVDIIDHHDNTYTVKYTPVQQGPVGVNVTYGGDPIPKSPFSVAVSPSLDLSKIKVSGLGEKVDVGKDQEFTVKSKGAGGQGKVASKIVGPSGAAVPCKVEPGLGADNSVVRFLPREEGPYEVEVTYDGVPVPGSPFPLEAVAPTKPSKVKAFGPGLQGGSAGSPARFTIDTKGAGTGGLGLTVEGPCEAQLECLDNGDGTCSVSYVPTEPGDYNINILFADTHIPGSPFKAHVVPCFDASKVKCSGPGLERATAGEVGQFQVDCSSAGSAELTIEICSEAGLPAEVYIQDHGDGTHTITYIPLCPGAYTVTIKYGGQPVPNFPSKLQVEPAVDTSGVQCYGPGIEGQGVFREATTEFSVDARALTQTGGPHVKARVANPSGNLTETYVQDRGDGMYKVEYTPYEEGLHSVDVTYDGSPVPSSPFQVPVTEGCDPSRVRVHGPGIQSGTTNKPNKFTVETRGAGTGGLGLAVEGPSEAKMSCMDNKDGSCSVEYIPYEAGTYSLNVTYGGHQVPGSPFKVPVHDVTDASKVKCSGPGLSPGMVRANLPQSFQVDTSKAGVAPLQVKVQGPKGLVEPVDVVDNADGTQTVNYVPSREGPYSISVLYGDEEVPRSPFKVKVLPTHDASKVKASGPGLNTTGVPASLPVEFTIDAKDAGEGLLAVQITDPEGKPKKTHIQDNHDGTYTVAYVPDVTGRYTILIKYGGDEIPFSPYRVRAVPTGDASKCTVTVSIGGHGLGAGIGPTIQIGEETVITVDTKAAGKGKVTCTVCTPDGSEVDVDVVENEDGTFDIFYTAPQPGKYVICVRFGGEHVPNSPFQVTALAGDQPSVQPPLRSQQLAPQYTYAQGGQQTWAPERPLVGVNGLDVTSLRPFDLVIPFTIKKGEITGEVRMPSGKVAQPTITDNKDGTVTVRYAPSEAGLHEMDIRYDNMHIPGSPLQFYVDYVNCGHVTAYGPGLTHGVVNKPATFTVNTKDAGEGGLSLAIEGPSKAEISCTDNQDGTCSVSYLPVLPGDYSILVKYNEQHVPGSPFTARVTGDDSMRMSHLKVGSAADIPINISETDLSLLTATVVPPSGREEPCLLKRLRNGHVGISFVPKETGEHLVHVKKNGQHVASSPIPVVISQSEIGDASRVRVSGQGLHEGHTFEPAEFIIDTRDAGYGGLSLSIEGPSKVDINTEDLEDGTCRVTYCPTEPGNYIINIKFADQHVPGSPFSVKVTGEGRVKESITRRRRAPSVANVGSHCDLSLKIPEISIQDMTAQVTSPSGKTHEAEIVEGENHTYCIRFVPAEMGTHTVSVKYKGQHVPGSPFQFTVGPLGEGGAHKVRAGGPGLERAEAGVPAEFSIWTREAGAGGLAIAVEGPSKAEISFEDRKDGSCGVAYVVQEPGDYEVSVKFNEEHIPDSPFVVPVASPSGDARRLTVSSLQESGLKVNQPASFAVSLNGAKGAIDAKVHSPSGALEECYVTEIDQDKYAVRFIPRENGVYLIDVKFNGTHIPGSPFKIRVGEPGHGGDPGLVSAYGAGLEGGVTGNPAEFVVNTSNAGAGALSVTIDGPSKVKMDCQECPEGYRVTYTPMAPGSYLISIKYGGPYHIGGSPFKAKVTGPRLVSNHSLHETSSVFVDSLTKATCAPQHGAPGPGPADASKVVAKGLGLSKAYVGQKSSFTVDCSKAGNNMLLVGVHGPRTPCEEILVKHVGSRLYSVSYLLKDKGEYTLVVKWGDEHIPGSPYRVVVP
GFP-TauMBD-CT (pEGFP-C1 Tau0N4R MBD-CT (157-383)) (P10636, residues 532-758): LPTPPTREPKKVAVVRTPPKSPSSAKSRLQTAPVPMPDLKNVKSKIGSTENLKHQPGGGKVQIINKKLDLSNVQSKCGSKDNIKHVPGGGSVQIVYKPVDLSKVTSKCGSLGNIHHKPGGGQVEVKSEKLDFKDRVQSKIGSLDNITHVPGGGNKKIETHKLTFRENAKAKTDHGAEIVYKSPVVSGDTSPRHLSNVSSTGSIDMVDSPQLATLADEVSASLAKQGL
GFP-4RTau (pEGFP-C1 Tau0N4R) (P10636-6, form named): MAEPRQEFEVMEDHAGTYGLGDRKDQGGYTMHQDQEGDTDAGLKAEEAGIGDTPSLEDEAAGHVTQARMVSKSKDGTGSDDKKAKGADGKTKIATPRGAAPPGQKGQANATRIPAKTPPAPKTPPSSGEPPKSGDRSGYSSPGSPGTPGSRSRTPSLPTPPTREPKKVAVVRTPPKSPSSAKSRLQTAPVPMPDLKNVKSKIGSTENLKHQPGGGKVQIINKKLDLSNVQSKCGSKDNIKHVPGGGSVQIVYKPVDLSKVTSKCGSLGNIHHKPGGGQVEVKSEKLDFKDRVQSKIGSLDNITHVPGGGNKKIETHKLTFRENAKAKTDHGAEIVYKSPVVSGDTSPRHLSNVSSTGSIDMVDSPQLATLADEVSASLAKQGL
GFP-TauNT (pEGFP-C1 Tau0N4R NT (1-156)) (P10636-6, form named): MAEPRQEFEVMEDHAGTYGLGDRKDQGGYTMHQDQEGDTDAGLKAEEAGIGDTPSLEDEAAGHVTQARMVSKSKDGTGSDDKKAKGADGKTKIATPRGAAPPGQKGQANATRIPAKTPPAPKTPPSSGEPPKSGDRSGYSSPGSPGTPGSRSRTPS

Target: myc-FLNA (pcDNA3-myc-FLNa WT) (UniProt P21333)
Test: co-IP; myc-trap on lysates of N2a cells co-transfected with myc-FLNA and the GFP constructs, processed as for the GFP-trap; Tau detected by blot with the GFP antibody; n = 3

Substance	binding
GFP-TauMBD-CT (pEGFP-C1 Tau0N4R MBD-CT (157-383)) (from UniProt P10636-6 157-383) (domain or fragment)	binds
GFP-4RTau (pEGFP-C1 Tau0N4R) (from UniProt P10636-6 1-383)	binds
GFP-TauNT (pEGFP-C1 Tau0N4R NT (1-156)) (from UniProt P10636-6 1-156) (domain or fragment)	no binding
